# Measured values as given in paper PMC7861564.
# The exact form of at least one protein or probe is not confirmed. At least one verdict was read from the data and is not stated in words by the source. Protein sequences can lack the tags named with them.
# Target: T1, AtSSB (Agrobacterium tumefaciens strain C58) (UniProt Q8UF87)
# T1 sequence: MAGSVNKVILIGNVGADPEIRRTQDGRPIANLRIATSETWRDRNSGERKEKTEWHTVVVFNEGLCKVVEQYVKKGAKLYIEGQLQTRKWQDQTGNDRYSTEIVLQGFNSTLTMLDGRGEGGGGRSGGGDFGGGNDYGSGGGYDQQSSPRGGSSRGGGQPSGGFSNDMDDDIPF
# Experiment: EMSA
# Settings: 1 mM DTT, 2 mM CaCl2, 100 ug/mL BSA, 50 mM potassium glutamate; recombinant protein; protein details: N-terminal 6xHis (pET15b); single-stranded DNA
sequence,measurement,value
GGAAGCGATAAAACTCTGCAGGTTGGATACGCCAA [OGCB664],binding result,binds
